Results are given in words; binding and its absence hold for the method and conditions named. Some entries that bind do so weakly or less than the wild type.
Biological target: T1, human EphB4 (binding partner, form not stated) (human) (UniProt P54760)
T1 sequence: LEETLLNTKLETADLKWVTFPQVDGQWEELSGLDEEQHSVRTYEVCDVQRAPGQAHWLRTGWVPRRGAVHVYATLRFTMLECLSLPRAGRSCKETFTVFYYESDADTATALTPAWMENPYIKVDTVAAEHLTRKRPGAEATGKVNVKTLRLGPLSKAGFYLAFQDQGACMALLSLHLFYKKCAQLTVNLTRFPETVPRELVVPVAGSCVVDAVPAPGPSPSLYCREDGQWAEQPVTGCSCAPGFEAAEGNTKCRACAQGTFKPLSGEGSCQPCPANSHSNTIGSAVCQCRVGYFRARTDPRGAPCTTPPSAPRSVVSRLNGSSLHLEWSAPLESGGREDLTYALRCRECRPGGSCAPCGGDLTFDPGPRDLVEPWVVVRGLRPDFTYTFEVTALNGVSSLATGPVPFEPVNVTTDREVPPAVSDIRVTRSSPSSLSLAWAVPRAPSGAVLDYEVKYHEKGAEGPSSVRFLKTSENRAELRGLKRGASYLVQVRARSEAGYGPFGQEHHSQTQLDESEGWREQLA
Assay: biochemical assays; EphB4 partner reagent not named

Sequences of proteins named here, by UniProt entry; tags and fusion partners are left off. A change or cut given only in a name is not applied to a line headed by its entry.
UniProt P52799: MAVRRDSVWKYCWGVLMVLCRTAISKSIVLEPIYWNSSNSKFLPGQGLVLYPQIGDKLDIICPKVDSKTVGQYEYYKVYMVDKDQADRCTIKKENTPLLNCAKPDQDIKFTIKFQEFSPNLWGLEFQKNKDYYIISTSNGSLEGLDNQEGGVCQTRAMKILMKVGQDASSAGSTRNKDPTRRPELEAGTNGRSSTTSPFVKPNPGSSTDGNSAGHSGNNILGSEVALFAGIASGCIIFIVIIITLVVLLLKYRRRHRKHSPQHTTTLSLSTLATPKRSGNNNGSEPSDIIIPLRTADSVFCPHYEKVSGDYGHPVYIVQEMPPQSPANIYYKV

binding: binds
Substance: B2EC (from UniProt P52799 28-225) (ligand)

Source: patent US20070218061A1 (VASGENE THERAPEUTICS, published 2007)
